Source: PubChem BioAssay AID1259254 (NCATS, 2017)
Here is one part, drawn at random, of about 59,000 deposited reagents. Of all reagents, about 1,550 (2.6%) were called active. 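G2 share is only a proxy for re-replication; each gene was hit by three separate siRNAs, and active genes were retested.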 A number with no mark means an inactive call. Reagents against one gene are numbered here. Not all columns of the deposit are shown. Not stated in the record: the amount of reagent.

- Aim: 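Genome-wide screen for genes that prevent DNA re-replication in cancer cells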 (primary screen)
- Cells: human HCT116 colorectal cancer cells
- Reagent: single siRNA against human genes
- Timing: 3 days
- Detection: 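Nuclei stained with Hoechst and imaged; cell-cycle phase assigned by DNA content; G2 share scaled per plate, non-targeting siRNA 0%, GMNN siRNA 100%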
- Reading the numbers: G2 robust z-score: higher = more G2 cells, more excess DNA replication
- Call rule: 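Active siRNAs have a G2 robust z of 5 or more median absolute deviations over the median, which in these data means about 38% or higher of GMNN control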

G2 robust z-score, by gene and reagent
FAM153B (family with sequence similarity 153 member B): #1 -0.0239; #2 0.757; #3 0.68
GALP (galanin like peptide): #1 3.15; #2 3.67; #3 1.64
ASB18 (ankyrin repeat and SOCS box containing 18): #1 -0.46; #2 2.01; #3 2.17
ZNF318 (zinc finger protein 318): #1 -0.882; #2 0.741; #3 -0.0891
PGS1 (phosphatidylglycerophosphate synthase 1): #1 1.1; #2 -0.438; #3 -0.418
TUBA1C (tubulin alpha 1c): #1 5.03 (active); #2 -0.332; #3 0.717
EFNA1 (ephrin A1): #1 0.713; #2 0.153; #3 0.397
SIK3 (SIK family kinase 3): #1 0.622; #2 -0.407; #3 0.815
RNF115 (ring finger protein 115): #1 2.77; #2 0.653; #3 2.94
ARL6 (ARF like GTPase 6): #1 0.435; #2 1.8; #3 -0.037
